Data taken from ChEMBL document CHEMBL3988442, “University of Dundee, Small-Polar-MMV Screening Library” (2021).

Chains of the proteins cited; added tags and fusions are not shown. Residues count along the entry.
UniProt P9WPC5, whole entry: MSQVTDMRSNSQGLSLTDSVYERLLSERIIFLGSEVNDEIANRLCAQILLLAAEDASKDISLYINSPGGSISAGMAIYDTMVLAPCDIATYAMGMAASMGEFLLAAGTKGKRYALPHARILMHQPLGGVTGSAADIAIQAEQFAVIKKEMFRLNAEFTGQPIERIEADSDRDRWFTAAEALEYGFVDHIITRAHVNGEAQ
UniProt P9WPC3, whole entry partner: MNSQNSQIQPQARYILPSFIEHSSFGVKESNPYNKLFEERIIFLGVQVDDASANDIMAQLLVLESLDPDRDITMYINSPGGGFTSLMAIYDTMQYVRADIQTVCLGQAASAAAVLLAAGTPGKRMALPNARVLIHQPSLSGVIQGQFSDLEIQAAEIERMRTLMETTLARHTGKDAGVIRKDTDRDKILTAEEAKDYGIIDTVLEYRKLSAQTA
UniProt Q4DA54, 1-478: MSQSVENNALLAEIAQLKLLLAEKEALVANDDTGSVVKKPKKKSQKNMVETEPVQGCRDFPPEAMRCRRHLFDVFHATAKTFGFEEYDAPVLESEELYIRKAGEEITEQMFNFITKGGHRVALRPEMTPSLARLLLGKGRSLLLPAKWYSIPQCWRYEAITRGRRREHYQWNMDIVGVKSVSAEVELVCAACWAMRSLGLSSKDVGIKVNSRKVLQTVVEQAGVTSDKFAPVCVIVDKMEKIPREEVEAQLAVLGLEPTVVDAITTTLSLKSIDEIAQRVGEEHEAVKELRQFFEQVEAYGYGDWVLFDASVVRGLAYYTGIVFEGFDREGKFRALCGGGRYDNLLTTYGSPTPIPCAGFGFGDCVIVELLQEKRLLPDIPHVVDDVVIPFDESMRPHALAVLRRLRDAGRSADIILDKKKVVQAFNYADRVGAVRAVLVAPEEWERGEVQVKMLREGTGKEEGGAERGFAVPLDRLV
UniProt P9WNZ1, whole entry: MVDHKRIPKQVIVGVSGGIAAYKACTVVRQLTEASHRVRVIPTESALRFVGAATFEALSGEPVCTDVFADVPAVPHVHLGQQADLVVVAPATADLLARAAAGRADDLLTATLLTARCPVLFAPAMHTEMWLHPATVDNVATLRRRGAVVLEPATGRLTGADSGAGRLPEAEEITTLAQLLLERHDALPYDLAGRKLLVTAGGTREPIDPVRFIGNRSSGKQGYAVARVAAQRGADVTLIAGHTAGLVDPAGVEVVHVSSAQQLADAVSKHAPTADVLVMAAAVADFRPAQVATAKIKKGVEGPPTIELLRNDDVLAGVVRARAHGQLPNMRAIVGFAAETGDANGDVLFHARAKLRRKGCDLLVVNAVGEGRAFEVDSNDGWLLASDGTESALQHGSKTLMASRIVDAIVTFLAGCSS

Results are given as percent effect. The controls that fix the scale are not given in the record; negative values are as filed. The compounds are a random part of those screened. Two or more numbers in one place are separate tests of the same structure; such repeats can differ widely. A dash means the value is not listed here; it may have been measured.

ClpP1P2: 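Protease assay of ClpP1P2, read by the AMC dye that it sets free. Target: ClpP1P2, Mycobacterium tuberculosis (UniProt P9WPC5 and UniProt P9WPC3). Tested at 50 µM. Higher reads as stronger inhibition, judged from the few compounds that gave an IC50. Most other retested compounds had strongly negative values. Of about 69,000 compounds tested this way, about 10 (0.015%) reached 50% or more in at least one test.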
Toxoplasma: 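Assay of Toxoplasma gondii numbers, read through their beta-galactosidase reporter with a colour substrate. Concentration: 10 µM. Higher reads as fewer parasites (inferred from which compounds were picked for retests). Size under these conditions: about 67,000 compounds, about 260 of them at 50% or above in at least one test.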
Leishmania in macrophages: 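Cell assay of Leishmania donovani living inside macrophages; the read-out is not stated. Compounds at 30 µM. Direction is inferred from retests: higher values go with stronger inhibition. About 69,000 compounds were tested under these conditions; 1.5% (about 1,000) showed 50% or more at least once.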
TcHisRS: 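Histidine-tRNA ligase, Trypanosoma cruzi CL Brener (UniProt Q4DA54). Enzyme assay of histidyl-tRNA synthetase; the read-out is not stated. Tested at 30 µM. Direction is inferred from retests: higher values go with stronger inhibition. Size under these conditions: about 69,000 compounds, about 31 of them at 50% or above in at least one test.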
CoaBC: 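Coenzyme A biosynthesis protein CoaBC, Mycobacterium tuberculosis (UniProt P9WNZ1). Enzyme assay of CoaBC with a phosphate dye (Biomol Green) read at 650 nm. Concentration: 30 µM. Direction is inferred from only a few compounds that gave an IC50; most scored high, so higher reads as stronger inhibition. Most strong results did not repeat in a second test. Of about 67,000 compounds tested this way, about 40 (0.06%) reached 50% or more in at least one test.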

structure	ClpP1P2	Toxoplasma	Leishmania in macrophages	TcHisRS	CoaBC
O=S(=O)(NCC1CCCN(Cc2ccccc2F)C1)C1CC1 (stereo not given)	-13.91	-21.35	-6.213	5.603	1.394
O=C(c1ccc(N2CCCC2)nc1)N1CCCC(c2nccs2)C1 (stereo not given)	-21.12	-14.09	-18.74	2.484	3.924
Cc1nc(-c2cncnc2C2CCCNC2)no1.Cl.Cl (stereo not given)	-	15.23	9.405	-	-
COc1ccc(CNC(=O)c2ccoc2CN2CCNC(=O)C2)cc1	1.902	2.121	-8.396	5.699	-30.47
O=C(COc1ccc(C(F)(F)F)cc1)NS(=O)(=O)c1cccnc1	8.181	-17.5	19.17	4.943	0.5319
COc1ccc(-c2nc(CC(=O)N(C)CCC#N)cs2)cc1OC	-3.988	-5.93	0.3942	8.021	0.4348
CN(C)CCOCc1cncc2c1CCN(C1CCOC1)C2 (stereo not given)	1.183	-	-	2.222	0
FC(F)(F)C1CN(Cc2cccc(-c3ccccn3)c2)CCO1 (stereo not given)	-4.931	-	-21.54	5.941	2.066
CN(C)C(=O)COCc1cncc2c1CCN(Cc1ccccc1)C2.O=C(O)C(F)(F)F.O=C(O)C(F)(F)F	-	7.173	-8.288	-	-
CN1[C@@H](CCC(=O)NCc2ccc(F)cc2)CNC(=O)[C@H]2NCC[C@H]21	-2.411	-	-	14.85	-9.707
Cn1ccnc1C(=O)N1CCC2(CCN2c2ncccn2)C1.O=C(O)C(F)(F)F (stereo not given)	-	8.552	-4.404	-	-
COC[C@@H]1CCC[C@]12CN(Cc1ccco1)CCO2	-5.366	-	-	7.317	4.01
CC(C)CN1CCn2c(COCc3cccnc3)nnc2C1	-24.14	-	-	3.922	5.863
COCCNc1cc(C)nn2cnnc12	11.68	70.24	-35.52	0.8696	-9.238
CC(C)Cc1cc(NC(=O)c2ccccn2)n(C)n1	-5.533	7.983	-19.95	2.874	5.548
O=C(O)C(F)(F)F.O=C(O)C(F)(F)F.[H][C@@]12CCCO[C@]1([H])[C@@H](OCc1ccncc1)CN2Cc1scnc1C	-	3.709	-2.024	-	-
Cc1cc(C)nc(NCCSc2cnn[nH]2)n1	1.714	0.7859	8.222	-2.89	2.066
Cc1cnc(N2CCN3C[C@H](OCc4ccccn4)C[C@H]3C2)nc1	2.362	-	-	6.329	-
Cn1cc(CN2CC[C@@H]3[C@@H]2CCN3C(=O)c2cccc(F)c2)cn1	-5.537	-	-	11.22	5.068
Cc1nccn1CCCN1CCC2(CCC(=O)N(CC3CC3)C2)CC1	6.978	-2.722	40.36	11.11	0.6734
O=C(O)C1CCCN(C(=O)CCn2ccc3c(Cl)cccc32)C1 (stereo not given)	-3.911	-0.5102	-22.85 & 13.76	3.659	-0.5063
Cc1cnn(CC2CCCN2Cc2cc(=O)n3c(C)csc3n2)c1 (stereo not given)	-15.61	-5.739	11.15	1.163	1.717
CS(=O)(=O)NC[C@]12COC[C@H]1CN(C(=O)c1cnccn1)C2	-4.78	-	-	3.226	-0.2105
O[C@H]1CC[C@@H](Cc2cc(-c3ccccc3)on2)O[C@@H]1CNCC1CC1	-25.81	1.724	36.49	3.483	-6.774
CC(C)(O)CN1CCN(C(=O)c2cnn(-c3ccccc3F)c2)CC1	1.613	0.1163	2.277	13.33	-7.438
Nc1no[n+]([O-])c1C(=O)NCc1ccco1	5.315	9.498	-1.46	1.515	0
NC(=O)C1CCN(C(=O)NCc2csc(Br)c2)CC1	-26.18	8.145	17.55	9.038	2.117
CCN(CC)C(=O)N1CCN(C(=O)C2CCCc3[nH]ncc32)CC1 (stereo not given)	-0.4786	-4.492	28.28	4.233	-8.481
[H][C@]12CC[C@]([H])(CN(c3ncccn3)C1)N(C(=O)c1cc(C(C)C)oc1C)C2	-	2.761	22.58	-	-
COc1ccccc1C(=O)NS(=O)(=O)c1cncc(Br)c1	0.3249	-8.247	2.367	3.077	7.348
Cc1[nH]nc(-c2ccc(F)cc2)c1CC(=O)NCC1CCOCC1	-0.193	0.8387	5.184	10.31	-8.255
COc1cc2[nH]c(=O)c(CN3CCCC3C)cc2c(OC)c1OC (stereo not given)	-8.065	-1.731	25.45	8.718	0.4969
COCC(=O)N1CCCC(c2nc(N(C)C)ncc2-c2ccccc2)C1 (stereo not given)	-1.28	-11.87	-3.215	4.981	2.67
CC(C)c1n[nH]c(C2CN(Cc3ccno3)CCO2)n1 (stereo not given)	-10.21	-3.593	53.56	1.948	3.265
CCOCc1nc(CSc2ccncc2)n(C)n1	10.4	-5.635	-8.001	1.064	0
O=C(O)C(F)(F)F.[H][C@@]12CCN(C(=O)c3ccc[nH]3)[C@@]1([H])CC(=O)N2CCN1CCCC1	-	-19.38	1.192	-	-
O=C(c1ccnnc1)N1C[C@@H](OCC2CCCC2)[C@H]2OCCC[C@H]21	4.116	-	-	-6.952	1.449
Cc1ccc(-c2noc(CNCC3CN(C)CCO3)n2)cc1F (stereo not given)	1.215	16.78	24.1	-5.102	7.991
O=C(c1csnn1)N1CCc2[nH]nc(COc3cccc(Cl)c3)c2C1	-8.071	7.719	20.78	0.5587	3.226
COCC(=O)N1CCC2(CC1)CC(COC)N(c1ncccn1)C2.O=C(O)C(F)(F)F (stereo not given)	-	8.901	16.63	-	-
COCc1cc(CNCc2c(C)n(CC(N)=O)c3ccccc23)n[nH]1	-6.937	-2.193	-8.095	0.5181	2.806
O=C(c1ccnc(-n2ccnc2)c1)N1CCCC(n2ccnc2)C1 (stereo not given)	1.244	14.22	23.53	4.298	9.565
Cc1cnn(CC2CCCN2C(=O)c2cc3ccccc3[nH]c2=O)c1 (stereo not given)	6.204	0.05907	-39.95	-0.3774	5.897
Cc1cccc(OCCCN2CCC(N(C)Cc3noc(C)n3)C2)c1 (stereo not given)	3.426	19.53	22.28	3.704	-11.8
Cc1ccc(CN2CCc3ncnc(OC(C)C)c3CC2)s1.O=C(O)C(F)(F)F	-	2.709	-2.217	-	-

For reference, 4 entries once more:

{"structure": "Cc1ccc(CN2CCc3ncnc(OC(C)C)c3CC2)s1.O=C(O)C(F)(F)F", "Toxoplasma": 2.709, "Leishmania in macrophages": -2.217}
{"structure": "COCC(=O)N1CCC2(CC1)CC(COC)N(c1ncccn1)C2.O=C(O)C(F)(F)F", "stereo": "stereo not given", "Toxoplasma": 8.901, "Leishmania in macrophages": 16.63}
{"structure": "Cc1ccc(-c2noc(CNCC3CN(C)CCO3)n2)cc1F", "stereo": "stereo not given", "ClpP1P2": 1.215, "Toxoplasma": 16.78, "Leishmania in macrophages": 24.1, "TcHisRS": -5.102, "CoaBC": 7.991}
{"structure": "O=C(O)C(F)(F)F.[H][C@@]12CCN(C(=O)c3ccc[nH]3)[C@@]1([H])CC(=O)N2CCN1CCCC1", "Toxoplasma": -19.38, "Leishmania in macrophages": 1.192}